Experimental findings from article PMC7696408 are described below.

Results are given in words; binding and its absence hold for the method and conditions named. In cells and extracts the contact can be indirect. Here binding means that the protein was enriched with, or labelled near, the bait; the list need not be complete.

This assay concerns the target FlagBirA*-NRAS (human) (UniProt P01111). Description: proximity labelling; BioID: FlagBirA*-RAS bait in Flp-In T-REx 293 cells, 1 µg/mL tetracycline and 50 µM biotin for 24 h; modified RIPA lysis, Streptavidin Sepharose capture, trypsin, LC-MS/MS; hits at SAINT score ≥ 0.75; labelling radius ~10 nm.

B1: ZDHHC13 (protein, UniProt Q8IUH4 1-622)
chain: MEGPGLGSQCRNHSHGPHPPGFGRYGICAHENKELANAREALPLIEDSSNCDIVKATQYGIFERCKELVEAGYDVRQPDKENVSLLHWAAINNRLDLVKFYISKGAVVDQLGGDLNSTPLHWAIRQGHLPMVILLLQHGADPTLIDGEGFSSIHLAVLFQHMPIIAYLISKGQSVNMTDVNGQTPLMLSAHKVIGPEPTGFLLKFNPSLNVVDKIHQNTPLHWAVAAGNVNAVDKLLEAGSSLDIQNVKGETPLDMALQNKNQLIIHMLKTEAKMRANQKFRLWRWLQKCELFLLLMLSVITMWAIGYILDFNSDSWLLKGCLLVTLFFLTSLFPRFLVGYKNLVYLPTAFLLSSVFWIFMTWFILFFPDLAGAPFYFSFIFSIVAFLYFFYKTWATDPGFTKASEEEKKVNIITLAETGSLDFRTFCTSCLIRKPLRSLHCHVCNCCVARYDQHCLWTGRCIGFGNHHYYIFFLFFLSMVCGWIIYGSFIYLSSHCATTFKEDGLWTYLNQIVACSPWVLYILMLATFHFSWSTFLLLNQLFQIAFLGLTSHERISLQKQSKHMKQTLSLRKTPYNLGFMQNLADFFQCGCFGLVKPCVVDWTSQYTMVFHPAREKVLRSV
For B1, the binding result is “binds”.

B2: SLC16A10 (protein, UniProt Q8TF71 1-515)
chain: MVLSQEEPDSARGTSEAQPLGPAPTGAAPPPGPGPSDSPEAAVEKVEVELAGPATAEPHEPPEPPEGGWGWLVMLAAMWCNGSVFGIQNACGVLFVSMLETFGSKDDDKMVFKTAWVGSLSMGMIFFCCPIVSVFTDLFGCRKTAVVGAAVGFVGLMSSSFVSSIEPLYLTYGIIFACGCSFAYQPSLVILGHYFKKRLGLVNGIVTAGSSVFTILLPLLLRVLIDSVGLFYTLRVLCIFMFVLFLAGFTYRPLATSTKDKESGGSGSSLFSRKKFSPPKKIFNFAIFKVTAYAVWAVGIPLALFGYFVPYVHLMKHVNERFQDEKNKEVVLMCIGVTSGVGRLLFGRIADYVPGVKKVYLQVLSFFFIGLMSMMIPLCSIFGALIAVCLIMGLFDGCFISIMAPIAFELVGAQDVSQAIGFLLGFMSIPMTVGPPIAGLLRDKLGSYDVAFYLAGVPPLIGGAVLCFIPWIHSKKQREISKTTGKEKMEKMLENQNSLLSSSSGMFKKESDSII
For B2, the binding entry was “binds”.

B3: SLC35A2 (protein, UniProt P78381 1-396)
chain: MAAVGAGGSTAAPGPGAVSAGALEPGTASAAHRRLKYISLAVLVVQNASLILSIRYARTLPGDRFFATTAVVMAEVLKGLTCLLLLFAQKRGNVKHLVLFLHEAVLVQYVDTLKLAVPSLIYTLQNNLQYVAISNLPAATFQVTYQLKILTTALFSVLMLNRSLSRLQWASLLLLFTGVAIVQAQQAGGGGPRPLDQNPGAGLAAVVASCLSSGFAGVYFEKILKGSSGSVWLRNLQLGLFGTALGLVGLWWAEGTAVATRGFFFGYTPAVWGVVLNQAFGGLLVAVVVKYADNILKGFATSLSIVLSTVASIRLFGFHVDPLFALGAGLVIGAVYLYSLPRGAAKAIASASASASGPCVHQQPPGQPPPPQLSSHRGDLITEPFLPKLLTKVKGS
With B3, the binding entry was “binds”.

B4: SLC5A6 (protein, UniProt Q9Y289 1-635)
chain: MSVGVSTSAPLSPTSGTSVGMSTFSIMDYVVFVLLLVLSLAIGLYHACRGWGRHTVGELLMADRKMGCLPVALSLLATFQSAVAILGVPSEIYRFGTQYWFLGCCYFLGLLIPAHIFIPVFYRLHLTSAYEYLELRFNKTVRVCGTVTFIFQMVIYMGVVLYAPSLALNAVTGFDLWLSVLALGIVCTVYTALGGLKAVIWTDVFQTLVMFLGQLAVIIVGSAKVGGLGRVWAVASQHGRISGFELDPDPFVRHTFWTLAFGGVFMMLSLYGVNQAQVQRYLSSRTEKAAVLSCYAVFPFQQVSLCVGCLIGLVMFAYYQEYPMSIQQAQAAPDQFVLYFVMDLLKGLPGLPGLFIACLFSGSLSTISSAFNSLATVTMEDLIRPWFPEFSEARAIMLSRGLAFGYGLLCLGMAYISSQMGPVLQAAISIFGMVGGPLLGLFCLGMFFPCANPPGAVVGLLAGLVMAFWIGIGSIVTSMGSSMPPSPSNGSSFSLPTNLTVATVTTLMPLTTFSKPTGLQRFYSLSYLWYSAHNSTTVIVVGLIVSLLTGRMRGRSLNPATIYPVLPKLLSLLPLSCQKRLHCRSYGQDHLDTGLFPEKPRNGVLGDSRDKEAMALDGTAYQGSSSTCILQETSL
As for B4, the binding result is reported as “binds”.
